# PubChem BioAssay AID1159584 | Peter MacCallum Cancer Centre, 2016
# Assay: 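Genes that CDH1-null MCF10A cells selectively depend on to survive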 (primary screen)
# System: human MCF10A breast epithelial cells, parental and CDH1-null
# Knock-down reagent: siRNA against human genes
# Read-out: 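ATP luminescence (CellTiter-Glo) viability per line relative to mean mock wells over all plates, and the ratio of CDH1-null to parental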
# Reading the numbers: CDH1-null / parental viability ratio: higher = CDH1-null cells survive relatively better than parental; CDH1-null viability vs mock: higher = more viable CDH1-null cells; parental viability vs mock: higher = more viable parental cells
# The deposit covers about 18,000 reagents; below is an unselected part. Reagents against one gene are numbered here. Not given: the amount of reagent, the time to read-out.
The opening 7 entries, to show the layout:
target gene,reagent,CDH1-null / parental viability ratio,CDH1-null viability vs mock (fraction of mock),parental viability vs mock (fraction of mock)
CCDC183 (coiled-coil domain containing 183),1,0.96,0.78,0.81
THBS4 (thrombospondin 4),1,0.85,0.82,0.96
GOT2 (glutamic-oxaloacetic transaminase 2),1,1.09,1,0.92
CIZ1 (CDKN1A interacting zinc finger protein 1),1,1.05,1.03,0.98
SYBU (syntabulin),1,1.68,1.06,0.63
REG3G (regenerating family member 3 gamma),1,0.85,0.75,0.88
VEGFB (vascular endothelial growth factor B),1,0.88,0.45,0.51

Results, repeating the preview:
target gene,reagent,CDH1-null / parental viability ratio,CDH1-null viability vs mock (fraction of mock),parental viability vs mock (fraction of mock)
CCDC183 (coiled-coil domain containing 183),1,0.96,0.78,0.81
THBS4 (thrombospondin 4),1,0.85,0.82,0.96
GOT2 (glutamic-oxaloacetic transaminase 2),1,1.09,1,0.92
CIZ1 (CDKN1A interacting zinc finger protein 1),1,1.05,1.03,0.98
SYBU (syntabulin),1,1.68,1.06,0.63
REG3G (regenerating family member 3 gamma),1,0.85,0.75,0.88
VEGFB (vascular endothelial growth factor B),1,0.88,0.45,0.51
SLC35F2,1,1.27,0.52,0.41
PCBP4 (poly(rC) binding protein 4),1,0.88,0.66,0.75
INTS1 (integrator complex subunit 1),1,1.07,0.48,0.45
NUCB1 (nucleobindin 1),1,0.95,0.38,0.4
SEMA4A (semaphorin 4A),1,1.23,0.74,0.6
PRKAG2 (protein kinase AMP-activated non-catalytic subunit gamma 2),1,0.97,0.89,0.92
ADAM19 (ADAM metallopeptidase domain 19),1,1.23,1.03,0.84
ZNF219 (zinc finger protein 219),1,0.97,0.91,0.94
YME1L1 (YME1 like 1 ATPase),1,1.1,0.9,0.82
IL22RA2 (interleukin 22 receptor subunit alpha 2),1,0.88,0.56,0.64
RAD54B (RAD54 homolog B),1,0.99,0.7,0.71
RTL9 (retrotransposon Gag like 9),1,1.01,0.75,0.74
HEYL,1,1.29,1.08,0.84
HTRA4 (HtrA serine peptidase 4),1,1.06,0.82,0.77
ZNF707 (zinc finger protein 707),1,1.3,0.92,0.71
LRSAM1 (leucine rich repeat and sterile alpha motif containing 1),1,1.11,1.04,0.94
BTN3A3 (butyrophilin subfamily 3 member A3),1,1.24,0.47,0.38
NECAB1 (N-terminal EF-hand calcium binding protein 1),1,1.31,0.89,0.68
TMEM252 (transmembrane protein 252),1,0.88,0.56,0.64
BNIP1 (BCL2 interacting protein 1),1,0.9,0.62,0.69
"IGLL3P (immunoglobulin lambda like polypeptide 3, pseudogene)",1,1.48,0.86,0.58
TYRO3 (TYRO3 protein tyrosine kinase),1,0.89,0.66,0.74
UPP2 (uridine phosphorylase 2),1,1,0.9,0.9
ARHGAP11B (Rho GTPase activating protein 11B),1,0.87,0.59,0.68
USP31 (ubiquitin specific peptidase 31),1,1.19,0.88,0.74
GIGYF1 (GRB10 interacting GYF protein 1),1,0.88,0.63,0.72
CKS1B (CDC28 protein kinase regulatory subunit 1B),1,1.05,0.8,0.76
BRD2 (bromodomain containing 2),1,1.06,0.85,0.8
RUVBL1 (RuvB like AAA ATPase 1),1,0.94,0.87,0.93
GJC1 (gap junction protein gamma 1),1,1.16,1.23,1.06
CCDC138 (coiled-coil domain containing 138),1,0.94,0.94,1
OR8U1 (olfactory receptor family 8 subfamily U member 1),1,1.12,1.01,0.9
SRSF4 (serine and arginine rich splicing factor 4),1,1.15,1.06,0.92
FMO2 (flavin containing dimethylaniline monoxygenase 2),1,0.98,0.82,0.84
CACUL1 (CDK2 associated cullin domain 1),1,1.02,0.93,0.91
G3BP2 (G3BP stress granule assembly factor 2),1,1,0.97,0.97
CSNK2B (casein kinase 2 beta),1,1.05,0.97,0.92
MFN1 (mitofusin 1),1,1.12,0.92,0.82
SMG5 (SMG5 nonsense mediated mRNA decay factor),1,0.91,0.96,1.05
PEX26 (peroxisomal biogenesis factor 26),1,0.98,0.62,0.63
PLIN3 (perilipin 3),1,0.96,0.5,0.52
IL17D (interleukin 17D),1,0.98,0.54,0.55
SLC6A2,1,1.04,0.56,0.54
TYRP1 (tyrosinase related protein 1),1,1.14,1.21,1.06
OPRD1 (opioid receptor delta 1),1,0.95,0.94,0.99
TTYH3 (tweety family member 3),1,1.18,0.92,0.78
OLFM1 (olfactomedin 1),1,0.93,0.83,0.89
"CDON (cell adhesion associated, oncogene regulated)",1,1.38,0.88,0.64
GRXCR2 (glutaredoxin and cysteine rich domain containing 2),1,1.11,0.99,0.89
SFTPA1 (surfactant protein A1),1,1.17,0.42,0.36
SFTPA1 (surfactant protein A1),2,1.01,0.92,0.91
BAP1 (BRCA1 associated deubiquitinase 1),1,1.22,1.04,0.85
PCDHB6 (protocadherin beta 6),1,1.12,0.84,0.75
THEM4 (thioesterase superfamily member 4),1,1.1,1.02,0.93
"SETD6 (SET domain containing 6, protein lysine methyltransferase)",1,1.22,0.66,0.54
SF3B6 (splicing factor 3b subunit 6),1,0.7,0.14,0.2
LY6H (lymphocyte antigen 6 family member H),1,1.24,0.99,0.8
APCDD1 (APC down-regulated 1),1,0.98,0.56,0.57
GMPR2 (guanosine monophosphate reductase 2),1,0.96,0.5,0.52
LPIN3 (lipin 3),1,1.02,0.64,0.63
HCAR2 (hydroxycarboxylic acid receptor 2),1,0.68,0.72,1.06
LHX4 (LIM homeobox 4),1,0.85,0.68,0.8
SLCO1A2,1,1.03,0.81,0.79
ZNF235 (zinc finger protein 235),1,0.95,0.8,0.84
KPRP (keratinocyte proline rich protein),1,1.14,0.41,0.36
PPIL6 (peptidylprolyl isomerase like 6),1,0.87,0.86,0.99
B2M (beta-2-microglobulin),1,0.81,0.68,0.84
RCVRN (recoverin),1,1.22,0.55,0.45
RNASE3 (ribonuclease A family member 3),1,0.79,0.74,0.94
PAM (peptidylglycine alpha-amidating monooxygenase),1,1,0.98,0.98
BPY2 (basic charge Y-linked 2),1,1.02,0.94,0.92
EIF3D (eukaryotic translation initiation factor 3 subunit D),1,1.04,0.5,0.48
ARSG (arylsulfatase G),1,0.98,0.4,0.41
RHBDD2 (rhomboid domain containing 2),1,1.03,0.97,0.94
TRIM68 (tripartite motif containing 68),1,0.7,0.46,0.66
CEP89 (centrosomal protein 89),1,0.66,0.49,0.74
KRTAP19-1 (keratin associated protein 19-1),1,1.01,0.72,0.71
TLX2 (T cell leukemia homeobox 2),1,0.96,0.8,0.83
CD6 (CD6 molecule),1,1.04,0.75,0.72
NPEPPS (aminopeptidase puromycin sensitive),1,1,0.62,0.62
